Measured values reported in the supplement of paper PMC10338343.
± gives the standard deviation. Only a part is listed here, and it is no random draw. Many of these values have a large error.

Legend:
[1] = system: MILI (PIWIL2) piRISC loaded with piRNA #1 (26 nt); test: pre-steady-state target cleavage rate (min^-1); higher = faster piRNA-guided slicing of the target; settings: guide: piRNA #1 5'p-UGAGGUAGUAGGUUGUAUAGUAUCCA; auxiliary factor: 500 nM mouse GTSF1
Procedure, shortened: (§1)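 The pre-steady-state cleavage rate was calculated from a burst-and-steady-state fit. Data came from Cleave-'n-Seq, in which […] transcribed, DNA-blocked target RNA library was mixed with 1 nM active affinity-purified piRISC carrying one synthetic guide, with or without 500 nM GTSF1 partner protein, in HEPES–potassium acetate buffer at 33 °C for 0–8 or 0–960 min. Uncleaved targets were sequenced and normalised to depth and to weakly complementary targets, three trials were pooled, and k3 was capped at 0.0001 min^-1.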

[2] = system: MIWI (PIWIL1) piRISC loaded with piRNA #1 (30 nt); test: as above; settings: guide: piRNA #1 5'p-UGAGGUAGUAGGUUGUAUAGUAUCCAGAGG; auxiliary factor: 500 nM mouse GTSF1
Procedure, shortened: as §1

[3] = system: EfPiwi piRISC loaded with piRNA #1 (26 nt); test: pre-steady-state target cleavage rate (min^-1); guide: piRNA #1 5'p-UGAGGUAGUAGGUUGUAUAGUAUCCA; MIWI and MILI are mouse PIWI proteins and EfPiwi is from a freshwater sponge; tags in brackets are library labels; higher = faster piRNA-guided slicing of the target; settings: auxiliary factor: 500 nM Ephydatia muelleri Gtsf1
Procedure, shortened: as §1

| Sequence | pre-steady-state target cleavage rate [1] | pre-steady-state target cleavage rate [2] | pre-steady-state target cleavage rate [3] |
| --- | --- | --- | --- |
| GGAGACCUAUGAAUACAACGCUACUACCUCA | 0.000194 ± 0.017 | 0.00018 ± 0.01 | 0.000441 ± 0.012 |
| GGAGACCUAUGAUAACAACCUACUACAUCA | 0.00146 ± 0.0037 | 0.00237 ± 0.0043 | 0.000256 ± 0.0099 |
| GGAGACCUAUGAUAUGUACCUACUACGUCA | 0.000266 ± 0.011 | 0.000174 ± 0.0079 | 0.000553 ± 0.0091 |
| GGAGACCUAUGAUAUGUUGCUACUACCCUCA | 0.000268 ± 0.014 | 0.000104 ± 0.011 | 0.000562 ± 0.0062 |
| GGAGACCUAUGAAUACAACCAAGUACCUCA | 0.00253 ± 0.0033 | 0.000697 ± 0.0037 | 0.000125 ± 0.022 |
| GGAGACCUAUGAUAUGUUGCUUACUACCUCA | 0.000888 ± 0.0068 | 0.00174 ± 0.0037 | 0.00187 ± 0.0029 |
| GGAGACCUAUGAUUACAACCCUACUACCUCA | 0.000815 ± 0.0052 | 0.000232 ± 0.0065 | 0.000809 ± 0.0083 |
| GGAGACCUAUCAAUACAACCAACUACCUCA | 0.00756 ± 0.0033 | 0.0016 ± 0.0043 | 0.0011 ± 0.0082 |
| GGAGACGAUACUAUACAACGCUACUACCUCA | 0.00688 ± 0.0028 | 0.000612 ± 0.0097 | 0.00969 ± 0.0037 |
| GGAGACCUAUGAUAACUACCUUCUACCUCA | 0.000899 ± 0.0073 | 0.000281 ± 0.01 | 0.000762 ± 0.008 |
| GGAGACCUAUGAUAUGUACCUGCUACCUCA | 0.000108 ± 0.022 | 0.00013 ± 0.014 | 0.000296 ± 0.014 |
| GGAGACCUAUGAUAACAACCUACUACGUCA | 0.00125 ± 0.0031 | 0.00139 ± 0.0028 | 0.000702 ± 0.0066 |
| GGAGACCUAUGAUUACAACCAACUAGCUCA | 0.00232 ± 0.003 | 0.000259 ± 0.0068 | 0.000492 ± 0.0095 |
| GGAGACCUAUGAUUACUACCUAGUACCUCA | 0.00104 ± 0.0049 | 0.000142 ± 0.014 | 0.00128 ± 0.0048 |
| GGAGACCUAUGUAUACAAUCCUACUACCUCA | 0.000894 ± 0.0089 | 0.000507 ± 0.012 | 0.00119 ± 0.0063 |
| GGAGACCUAUGAUAUGUUGCUACUACCUCA [g2:g11:cont:t1A] | 0.000384 ± 0.0091 | 0.000868 ± 0.0054 | 0.000904 ± 0.0022 |
| GGAGACCUAUGAUAACUACCAACUACCUCA | 0.000916 ± 0.0067 | 0.000145 ± 0.011 | 0.000266 ± 0.013 |
| GGAGACCUAUGAUAACAACCAACUACGUCA | 0.00104 ± 0.0051 | 0.000226 ± 0.008 | 0.00106 ± 0.0053 |
| GGAGACCUAUGAUAUGUACCUCCUACCUCA | 0.000165 ± 0.016 | 0.000159 ± 0.017 | 0.000605 ± 0.011 |
| GGAGACCUAUGAUAUGUACCAUGUACCUCA | 0.000326 ± 0.018 | 0.000457 ± 0.01 | 0.00024 ± 0.013 |
| GGAGACCUAUGUAUACGAACCUACUACCUCA | 0.000816 ± 0.0082 | 0.00101 ± 0.0056 | 0.0017 ± 0.0063 |
| GGAGACCUAUGAUUACAUCCUACUAGCUCA | 0.00651 ± 0.0025 | 0.000851 ± 0.0052 | 0.00121 ± 0.0057 |
| GGAGACCUAUGUAUACAACCUACUAGCUGA | 0.000947 ± 0.0058 | 0.00102 ± 0.0037 | 0.000585 ± 0.013 |

Whole records, quoted from the list. Order of values: pre-steady-state target cleavage rate [1] | pre-steady-state target cleavage rate [2] | pre-steady-state target cleavage rate [3]
GGAGACCUAUGAUAUGUUGCUACUACCUCA [g2:g11:cont:t1A] in the list: 0.000384 ± 0.0091 | 0.000868 ± 0.0054 | 0.000904 ± 0.0022
GGAGACCUAUGAUAUGUUGCUACUACCCUCA in the list: 0.000268 ± 0.014 | 0.000104 ± 0.011 | 0.000562 ± 0.0062

(cont.)

| Sequence | pre-steady-state target cleavage rate [1] | pre-steady-state target cleavage rate [2] | pre-steady-state target cleavage rate [3] |
| --- | --- | --- | --- |
| GGAGACCUAUGAUAUCAACAUACUACCUCA | 0.00109 ± 0.0074 | 0.00034 ± 0.01 | 0.00127 ± 0.005 |
| GGAGACCUAUGAUAUGUACCCUACUACCUCA | 0.00154 ± 0.0033 | 0.000239 ± 0.01 | 0.000657 ± 0.01 |
| GGAGACCUAACUAUACUUGCUACUACCUCA | 0.0149 ± 0.0044 | 0.000807 ± 0.012 | 0.00139 ± 0.0074 |
| GGAGACCUAUGAUUACAACCUAGUACGUCA | 0.00065 ± 0.0074 | 0.000737 ± 0.0063 | 0.00162 ± 0.0049 |
| GGAGACCUAUGAAUACAACGUACUACGUCA | 0.00152 ± 0.0042 | 0.000386 ± 0.0068 | 0.000328 ± 0.011 |
| GGAGACCUAUGAUAUGUUGGUACAACCACA | 0.000417 ± 0.011 | 0.000872 ± 0.0065 | 0.000257 ± 0.012 |
| GGAGACCUAUGAUAUCAACGUACUACCUCA | 0.00159 ± 0.0028 | 0.000234 ± 0.0081 | 0.000346 ± 0.0066 |
| GGAGACCUAUGAUAUGUUGCUACUACGUGA | 0.000457 ± 0.01 | 0.000413 ± 0.0092 | 0.000454 ± 0.0078 |
| GGAGAGGAUACUAUACAACCUUGAUGGAGA [g10:g25:cont:t1A] | 0.00052 ± 0.0089 | 0.0006 ± 0.0088 | 0.00183 ± 0.003 |
| GGAGACCUAUGAUAACAACCUAUUACCUCA | 0.00248 ± 0.0027 | 0.000676 ± 0.0056 | 0.000222 ± 0.013 |
| GGAGACCUAUGAAUACAACCUACUAGCACA | 0.00098 ± 0.0064 | 0.000131 ± 0.012 | 0.000131 ± 0.027 |
| GGAGACCUAUGAUAUGUAGCUACUACCUCA | 0.000625 ± 0.0061 | 0.000715 ± 0.0068 | 0.00115 ± 0.0035 |
| GGAGACCUAUGAAUACAACCUACUAGCUCA | 0.00444 ± 0.0022 | 0.000438 ± 0.0049 | 0.00123 ± 0.0037 |
| GGAGACCUAUGAUAACAACAUACUACCUCA | 0.00202 ± 0.0033 | 0.00111 ± 0.0049 | 0.000744 ± 0.0046 |
| GGAGUGGAUACUAUACAACCUACAACCUGA | 0.000575 ± 0.0053 | 0.00128 ± 0.0047 | 0.00253 ± 0.0013 |
| GGAGACCUAACUAUACAACCCUACUACCUCA | 0.000811 ± 0.014 | 0.000158 ± 0.031 | 0.00347 ± 0.0043 |
| GGAGACCUAUGAUAACAACCUACUACCACA | 0.0018 ± 0.0044 | 0.000255 ± 0.011 | 0.000477 ± 0.013 |
| GGAGACCUAUGAUAUGUACCAUACUACCUCA | 0.000406 ± 0.013 | 0.000583 ± 0.0096 | 0.000678 ± 0.01 |
| GGAGACCUAUGAUAUGUUGGUCUACCUCA | 0.000307 ± 0.015 | 0.000379 ± 0.011 | 0.00101 ± 0.0053 |
| GGAGACCUAUGAUAACAACCUAGCUACCUCA | 0.00341 ± 0.0035 | 0.000442 ± 0.0061 | 0.000902 ± 0.0094 |
| GGAGACCUAUGAUUACAACCUAGUACCUCA | 0.00239 ± 0.0027 | 0.00196 ± 0.0023 | 0.00254 ± 0.0039 |
| GGAGACCUAUGAUAUGUUGGUACUACCUACA | 0.000533 ± 0.011 | 0.000399 ± 0.011 | 0.000708 ± 0.0076 |
| GGAGACCUAUGAUAUGUAGGUACUACCUCA | 0.000341 ± 0.011 | 0.000446 ± 0.0094 | 0.000354 ± 0.0053 |
